Test results from patent publication US20110262508A1, “ANTIMICROBIAL COMPOSITIONS, FORMULATIONS AND USES THEREOF” (priority 2007, published 2011).
Some entries share one result that the patent states for a list of compounds. Peptide text beside a SMILES is read from it. * marks the point of attachment. Biotin = O=C1N[C@H]2[C@H](CS[C@H]2CCCCC(=O)*)N1

Test system: A. baumannii cultures
Test: Time taken to exert cytotoxic effect (killing time)
Format: cell-based
Description: To determine the time killing times for bactericidal peptides, A. baumannii cultures were exposed to different concentrations of peptides for predetermined time periods, and the numbers of bacteria surviving at the end of each time period were determined. Peptides were classified as “Fast”, “Intermediate” or “Slow” according to whether they exerted their cytotoxic effect in less than 30 mins, or between 30-60 mins, or between […] and 240 mins.

## CC[C@H](C)[C@H](NC(=O)[C@H](Cc1c[nH]c2ccccc12)NC(=O)[C@H](CC(=O)O)NC(=O)[C@H](CO)NC(=O)[C@H](CS)NC(=O)[C@H](CC(C)C)NC(=O)[C@H](CC(C)C)NC(=O)[C@H](C)NC(=O)[C@H](CS)NC(=O)[C@H](CCCNC(=N)N)NC(=O)[C@H](CC(C)C)NC(=O)[C@H](CCCNC(=N)N)NC(=O)[C@H](C)NC(=O)CNC(=O)[C@H](CCCNC(=N)N)NC(=O)[C@@H](NC(=O)CCCC[C@@H]1SC[C@@H]2NC(=O)N[C@@H]21)C(C)C)C(=O)N[C@H](C(=O)N[C@@H](CO)C(=O)N[C@@H](CS)C(=O)N[C@@H](CCCNC(=N)N)C(=O)N[C@@H](CC(C)C)C(=O)N[C@@H](CC(C)C)C(=O)NCC(=O)O)C(C)C [Ac38] (Biotin-VRGARLRCALLCSDWIVSCRLLG-OH; N-terminus and C-terminus assumed)
  time required to kill bacteria completely: less than 10 mins
